# The list shows a part of the results.
# B1: EfCBM33A (Enterococcus faecalis), Q838S1 (protein)
# chain: MKKSLLTIVLAFSFVLGGAALAPTVSEAHGYVASPGSRAFFGSSAGGNLNTNVGRAQWEPQSIEAPKNTFITGKLASAGVSGFEPLDEQTATRWHKTNITTGPLDITWNLTAQHRTASWDYYITKNGWNPNQPLDIKNFDKIASIDGKQEVPNKVVKQTINIPTDRKGYHVIYAVWGIGDTVNAFYQAIDVNIQ
# Legend:
# Assay in all cases: glycan array binding signal (z-score within array); higher = stronger binding
# Details in all cases: glycan notation: IUPAC condensed, linker removed
# Fuc(a1-2)Gal = biological target: Fuc(a1-2)Gal
# How it was run: (§1)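 The Consortium for Functional Glycomics database supplied 3228 glycan arrays, of which those lacking an available protein sequence were dropped. The binding signal, a within-array Z-score, was averaged across arrays of the same protein sequence and across linkers. Negative scores can be read as non-binding.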
# Fuc(a1-2)Gal(b1-3)GalNAc = biological target: Fuc(a1-2)Gal(b1-3)GalNAc
# How it was run: as §1
# [1] = biological target: Fuc(a1-2)Gal(b1-3)GalNAc(a1-3)[Fuc(a1-2)]Gal(b1-4)Glc
# How it was run: as §1
# [2] = biological target: Fuc(a1-2)Gal(b1-3)GalNAc(a1-3)[Fuc(a1-2)]Gal(b1-4)GlcNAc
# How it was run: as §1
# [3] = biological target: Fuc(a1-2)Gal(b1-3)GalNAc(b1-3)Gal
# How it was run: as §1
# [4] = biological target: Fuc(a1-2)Gal(b1-3)GalNAc(b1-3)Gal(a1-4)Gal(b1-4)Glc
# How it was run: as §1
# [5] = biological target: Fuc(a1-2)Gal(b1-3)GalNAc(b1-4)[Neu5Ac(a2-3)]Gal(b1-4)Glc
# How it was run: as §1
# Fuc(a1-2)Gal(b1-3)GlcNAc = biological target: Fuc(a1-2)Gal(b1-3)GlcNAc
# How it was run: as §1
# [6] = biological target: Fuc(a1-2)Gal(b1-3)GlcNAc(b1-2)Man(a1-3)[Fuc(a1-2)Gal(b1-3)GlcNAc(b1-2)Man(a1-6)]Man(b1-4)GlcNAc(b1-4)GlcNAc
# How it was run: as §1
# [7] = biological target: Fuc(a1-2)Gal(b1-3)GlcNAc(b1-2)Man(a1-3)[Fuc(a1-2)Gal(b1-3)GlcNAc(b1-2)Man(a1-6)]Man(b1-4)GlcNAc(b1-4)[Fuc(a1-6)]GlcNAc
# How it was run: as §1
# [8] = biological target: Fuc(a1-2)Gal(b1-3)GlcNAc(b1-3)Gal(b1-4)Glc
# How it was run: as §1
# [9] = biological target: Fuc(a1-2)Gal(b1-3)GlcNAc(b1-3)GalNAc
# How it was run: as §1
# [10] = biological target: Fuc(a1-2)Gal(b1-3)GlcNAc(b1-3)[Fuc(a1-2)Gal(b1-3)GlcNAc(b1-6)]GalNAc
# How it was run: as §1
# [11] = biological target: Fuc(a1-2)Gal(b1-3)GlcNAc(b1-3)[Gal(b1-4)GlcNAc(b1-6)]Gal(b1-4)Glc
# How it was run: as §1
# [12] = biological target: Fuc(a1-2)Gal(b1-3)GlcNAc(b1-3)[Neu5Ac(a2-6)Gal(b1-4)GlcNAc(b1-6)]Gal(b1-4)Glc
# How it was run: as §1
# [13] = biological target: Fuc(a1-2)Gal(b1-3)GlcNAc6S
# How it was run: as §1
# [14] = biological target: Fuc(a1-2)Gal(b1-3)[Fuc(a1-4)]GlcNAc
# How it was run: as §1
# [15] = biological target: Fuc(a1-2)Gal(b1-3)[Fuc(a1-4)]GlcNAc(b1-2)Man(a1-3)[Fuc(a1-2)Gal(b1-3)[Fuc(a1-4)]GlcNAc(b1-2)Man(a1-3)]Man(b1-4)GlcNAc(b1-4)GlcNAc
# How it was run: as §1
# [16] = biological target: Fuc(a1-2)Gal(b1-3)[Fuc(a1-4)]GlcNAc(b1-2)Man(a1-3)[Fuc(a1-2)Gal(b1-3)[Fuc(a1-4)]GlcNAc(b1-2)Man(a1-6)]Man(b1-4)GlcNAc(b1-4)[Fuc(a1-6)]GlcNAc(b1-4)[Fuc(a1-6)]GlcNAc
# How it was run: as §1
# [17] = biological target: Fuc(a1-2)Gal(b1-3)[Fuc(a1-4)]GlcNAc(b1-3)[Fuc(a1-3)[Gal(b1-4)]GlcNAc(b1-6)]Gal(b1-4)Glc
# How it was run: as §1
# [18] = biological target: Fuc(a1-2)Gal(b1-3)[Fuc(a1-4)]GlcNAc(b1-3)[Gal(b1-4)GlcNAc(b1-6)]Gal(b1-4)Glc
# How it was run: as §1
# [19] = biological target: Fuc(a1-2)Gal(b1-4)Fuc(a1-3)]GlcNAc(b1-2)Man(a1-3)[Fuc(a1-2)Gal(b1-4)[Fuc(a1-3)]GlcNAc(b1-2)Man(a1-6)]Man(b1-4)GlcNAc(b1-4)GlcNAc
# How it was run: as §1
# Fuc(a1-2)Gal(b1-4)Glc = biological target: Fuc(a1-2)Gal(b1-4)Glc
# How it was run: as §1
# Fuc(a1-2)Gal(b1-4)Glc6S = biological target: Fuc(a1-2)Gal(b1-4)Glc6S
# How it was run: as §1
# Fuc(a1-2)Gal(b1-4)GlcNAc = biological target: Fuc(a1-2)Gal(b1-4)GlcNAc
# How it was run: as §1
# [20] = biological target: Fuc(a1-2)Gal(b1-4)GlcNAc(b1-2)Man
# How it was run: as §1
# [21] = biological target: Fuc(a1-2)Gal(b1-4)GlcNAc(b1-2)Man(a1-3)[Fuc(a1-2)Gal(b1-4)GlcNAc(b1-2)Man(a1-6)]Man(b1-4)GlcNAc(b1-4)GlcNAc
# How it was run: as §1
# [22] = biological target: Fuc(a1-2)Gal(b1-4)GlcNAc(b1-2)Man(a1-3)[Fuc(a1-2)Gal(b1-4)GlcNAc(b1-2)Man(a1-6)]Man(b1-4)GlcNAc(b1-4)[Fuc(a1-6)]GlcNAc
# How it was run: as §1
# [23] = biological target: Fuc(a1-2)Gal(b1-4)GlcNAc(b1-2)[Fuc(a1-2)Gal(b1-4)GlcNAc(b1-4)]Man(a1-3)[Fuc(a1-2)Gal(b1-4)GlcNAc(b1-2)Man(a1-6)]Man(b1-4)GlcNAc(b1-4)GlcNAc
# How it was run: as §1
# [24] = biological target: Fuc(a1-2)Gal(b1-4)GlcNAc(b1-3)Gal(b1-4)GlcNAc
# How it was run: as §1
# [25] = biological target: Fuc(a1-2)Gal(b1-4)GlcNAc(b1-3)Gal(b1-4)GlcNAc(b1-2)Man(a1-3)[Fuc(a1-2)Gal(b1-4)GlcNAc(b1-3)Gal(b1-4)GlcNAc(b1-2)Man(a1-6)]Man(b1-4)GlcNAc(b1-4)GlcNAc
# How it was run: as §1
# [26] = biological target: Fuc(a1-2)Gal(b1-4)GlcNAc(b1-3)Gal(b1-4)GlcNAc(b1-3)Gal(b1-4)GlcNAc
# How it was run: as §1
# [27] = biological target: Fuc(a1-2)Gal(b1-4)GlcNAc(b1-3)GalNAc
# How it was run: as §1
# [28] = biological target: Fuc(a1-2)Gal(b1-4)GlcNAc(b1-3)[Fuc(a1-2)Gal(b1-4)GlcNAc(b1-6)]GalNAc
# How it was run: as §1
# [29] = biological target: Fuc(a1-2)Gal(b1-4)GlcNAc(b1-3)[Fuc(a1-3)[Gal(b1-4)]GlcNAc(b1-6)]Gal(b1-4)Glc
# How it was run: as §1
# [30] = biological target: Fuc(a1-2)Gal(b1-4)GlcNAc(b1-6)GalNAc
# How it was run: as §1
# [31] = biological target: Fuc(a1-2)Gal(b1-4)GlcNAc6S
# How it was run: as §1
# [32] = biological target: Fuc(a1-2)Gal(b1-4)[Fuc(a1-3)]GlcNAc
# How it was run: as §1
# [33] = biological target: Fuc(a1-2)Gal(b1-4)[Fuc(a1-3)]GlcNAc(b1-2)Man(a1-3)[Fuc(a1-2)Gal(b1-4)[Fuc(a1-3)]GlcNAc(b1-2)Man(a1-6)]Man(b1-4)GlcNAc(b1-4)[Fuc(a1-6)]GlcNAc
# How it was run: as §1
# [34] = biological target: Fuc(a1-2)Gal(b1-4)[Fuc(a1-3)]GlcNAc(b1-2)[Fuc(a1-2)Gal(b1-4)[Fuc(a1-3)]GlcNAc(b1-4)]Man(a1-3)[Fuc(a1-2)Gal(b1-4)[Fuc(a1-3)]GlcNAc(b1-2)Man(a1-6)]Man(b1-4)GlcNAc(b1-4)GlcNAc
# How it was run: as §1
# [35] = biological target: Fuc(a1-2)Gal(b1-4)[Fuc(a1-3)]GlcNAc(b1-3)Gal(b1-4)[Fuc(a1-3)]GlcNAc
# How it was run: as §1
# [36] = biological target: Fuc(a1-2)Gal(b1-4)[Fuc(a1-3)]GlcNAc(b1-3)Gal(b1-4)[Fuc(a1-3)]GlcNAc(b1-3)Gal(b1-4)[Fuc(a1-3)]GlcNAc
# How it was run: as §1
# [37] = biological target: Fuc(a1-2)Gal(b1-4)[Fuc(a1-3)]GlcNAc(b1-3)GalNAc
# How it was run: as §1
# [38] = biological target: Fuc(a1-2)Gal(b1-4)[Fuc(a1-3)]GlcNAc(b1-3)[Neu5Ac(a2-6)Gal(b1-4)GlcNAc(b1-6)]Gal(b1-4)Glc
# How it was run: as §1
# [39] = biological target: Fuc(a1-2)Gal3S(b1-4)GlcNAc
# How it was run: as §1
binder,measurement,setting,value
B1,glycan array binding signal (z-score),Fuc(a1-2)Gal,1.11
same,glycan array binding signal (z-score),Fuc(a1-2)Gal(b1-3)GalNAc,-0.633
same,glycan array binding signal (z-score),[1],-0.182
same,glycan array binding signal (z-score),[2],-0.436
same,glycan array binding signal (z-score),[3],-0.384
same,glycan array binding signal (z-score),[4],0.026
same,glycan array binding signal (z-score),[5],-0.51
same,glycan array binding signal (z-score),Fuc(a1-2)Gal(b1-3)GlcNAc,-0.353
same,glycan array binding signal (z-score),[6],0.104
same,glycan array binding signal (z-score),[7],1.69
same,glycan array binding signal (z-score),[8],-1.05
same,glycan array binding signal (z-score),[9],-0.837
same,glycan array binding signal (z-score),[10],0.402
same,glycan array binding signal (z-score),[11],-0.026
same,glycan array binding signal (z-score),[12],-1.04
same,glycan array binding signal (z-score),[13],-0.541
same,glycan array binding signal (z-score),[14],-0.477
same,glycan array binding signal (z-score),[15],0.371
same,glycan array binding signal (z-score),[16],0.645
same,glycan array binding signal (z-score),[17],-1.2
same,glycan array binding signal (z-score),[18],0.073
same,glycan array binding signal (z-score),[19],0.922
same,glycan array binding signal (z-score),Fuc(a1-2)Gal(b1-4)Glc,0.342
same,glycan array binding signal (z-score),Fuc(a1-2)Gal(b1-4)Glc6S,-0.44
same,glycan array binding signal (z-score),Fuc(a1-2)Gal(b1-4)GlcNAc,-0.251
same,glycan array binding signal (z-score),[20],-0.389
same,glycan array binding signal (z-score),[21],-0.877
same,glycan array binding signal (z-score),[22],-0.241
same,glycan array binding signal (z-score),[23],1.06
same,glycan array binding signal (z-score),[24],0.573
same,glycan array binding signal (z-score),[25],1.36
same,glycan array binding signal (z-score),[26],-0.368
same,glycan array binding signal (z-score),[27],0.433
same,glycan array binding signal (z-score),[28],0.218
same,glycan array binding signal (z-score),[29],0.997
same,glycan array binding signal (z-score),[30],1.05
same,glycan array binding signal (z-score),[31],-1.63
same,glycan array binding signal (z-score),[32],0.633
same,glycan array binding signal (z-score),[33],0.665
same,glycan array binding signal (z-score),[34],-0.786
same,glycan array binding signal (z-score),[35],0.784
same,glycan array binding signal (z-score),[36],0.201
same,glycan array binding signal (z-score),[37],-0.936
same,glycan array binding signal (z-score),[38],0.413
same,glycan array binding signal (z-score),[39],0.017

# Laid out differently: entries from further up.
binder | measurement | setting | value
B1 | glycan array binding signal (z-score) | [3] | -0.384
same | glycan array binding signal (z-score) | [11] | -0.026
same | glycan array binding signal (z-score) | [21] | -0.877
same | glycan array binding signal (z-score) | [24] | 0.573
same | glycan array binding signal (z-score) | [27] | 0.433
same | glycan array binding signal (z-score) | [30] | 1.05
same | glycan array binding signal (z-score) | [31] | -1.63
same | glycan array binding signal (z-score) | [35] | 0.784
same | glycan array binding signal (z-score) | [39] | 0.017

# Source: the supplement of paper PMC8728848
